Experimental data from the supplement of paper PMC10849652.
The other results are listed elsewhere or left out.

Amino acid sequences for entries named in this document (tags omitted). A change or cut given only in a name is not applied to a line headed by its entry.
UniProt P02724: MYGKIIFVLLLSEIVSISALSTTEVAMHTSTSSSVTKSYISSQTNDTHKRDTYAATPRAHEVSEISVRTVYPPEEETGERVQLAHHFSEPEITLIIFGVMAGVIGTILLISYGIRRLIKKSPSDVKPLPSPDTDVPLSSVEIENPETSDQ
UniProt P69891: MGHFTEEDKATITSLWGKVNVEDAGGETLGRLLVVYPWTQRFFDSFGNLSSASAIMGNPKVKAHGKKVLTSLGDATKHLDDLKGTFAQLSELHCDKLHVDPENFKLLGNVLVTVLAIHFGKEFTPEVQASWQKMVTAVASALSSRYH
UniProt Q969F1: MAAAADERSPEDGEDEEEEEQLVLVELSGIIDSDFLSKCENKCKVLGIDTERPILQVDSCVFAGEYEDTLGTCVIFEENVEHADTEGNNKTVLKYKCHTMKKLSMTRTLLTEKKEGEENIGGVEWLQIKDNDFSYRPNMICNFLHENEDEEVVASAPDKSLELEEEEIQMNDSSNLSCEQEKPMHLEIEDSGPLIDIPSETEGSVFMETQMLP
UniProt Q8IYD1, whole entry, looked up: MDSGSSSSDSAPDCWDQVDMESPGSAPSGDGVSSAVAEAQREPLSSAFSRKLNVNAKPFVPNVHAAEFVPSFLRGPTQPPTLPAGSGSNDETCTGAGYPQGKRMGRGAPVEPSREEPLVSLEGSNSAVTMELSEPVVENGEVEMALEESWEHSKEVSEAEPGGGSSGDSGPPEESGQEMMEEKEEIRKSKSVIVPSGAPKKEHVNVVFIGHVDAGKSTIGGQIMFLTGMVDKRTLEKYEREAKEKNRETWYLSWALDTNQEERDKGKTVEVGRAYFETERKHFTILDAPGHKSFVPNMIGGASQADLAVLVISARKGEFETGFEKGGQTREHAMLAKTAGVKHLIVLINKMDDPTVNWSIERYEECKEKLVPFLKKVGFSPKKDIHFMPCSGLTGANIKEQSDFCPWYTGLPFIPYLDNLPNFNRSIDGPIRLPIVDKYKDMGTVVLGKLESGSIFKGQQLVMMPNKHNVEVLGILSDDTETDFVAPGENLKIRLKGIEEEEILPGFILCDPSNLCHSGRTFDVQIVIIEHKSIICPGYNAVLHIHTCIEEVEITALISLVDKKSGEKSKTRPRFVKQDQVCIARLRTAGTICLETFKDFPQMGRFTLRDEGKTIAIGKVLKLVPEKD
UniProt Q13547, whole entry, looked up: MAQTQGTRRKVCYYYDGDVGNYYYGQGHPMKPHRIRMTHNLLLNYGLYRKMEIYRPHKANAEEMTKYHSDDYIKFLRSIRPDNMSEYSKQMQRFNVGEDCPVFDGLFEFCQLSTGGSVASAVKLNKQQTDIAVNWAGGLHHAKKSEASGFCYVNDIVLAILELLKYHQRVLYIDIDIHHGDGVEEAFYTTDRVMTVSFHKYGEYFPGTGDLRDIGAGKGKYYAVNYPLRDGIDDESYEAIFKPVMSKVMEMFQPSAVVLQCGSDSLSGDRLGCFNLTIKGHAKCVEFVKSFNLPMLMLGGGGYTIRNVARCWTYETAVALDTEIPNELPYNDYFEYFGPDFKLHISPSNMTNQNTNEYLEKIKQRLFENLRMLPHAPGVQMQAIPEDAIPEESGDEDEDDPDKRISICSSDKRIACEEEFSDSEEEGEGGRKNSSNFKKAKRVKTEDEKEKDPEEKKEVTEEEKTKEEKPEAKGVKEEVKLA
UniProt Q12789: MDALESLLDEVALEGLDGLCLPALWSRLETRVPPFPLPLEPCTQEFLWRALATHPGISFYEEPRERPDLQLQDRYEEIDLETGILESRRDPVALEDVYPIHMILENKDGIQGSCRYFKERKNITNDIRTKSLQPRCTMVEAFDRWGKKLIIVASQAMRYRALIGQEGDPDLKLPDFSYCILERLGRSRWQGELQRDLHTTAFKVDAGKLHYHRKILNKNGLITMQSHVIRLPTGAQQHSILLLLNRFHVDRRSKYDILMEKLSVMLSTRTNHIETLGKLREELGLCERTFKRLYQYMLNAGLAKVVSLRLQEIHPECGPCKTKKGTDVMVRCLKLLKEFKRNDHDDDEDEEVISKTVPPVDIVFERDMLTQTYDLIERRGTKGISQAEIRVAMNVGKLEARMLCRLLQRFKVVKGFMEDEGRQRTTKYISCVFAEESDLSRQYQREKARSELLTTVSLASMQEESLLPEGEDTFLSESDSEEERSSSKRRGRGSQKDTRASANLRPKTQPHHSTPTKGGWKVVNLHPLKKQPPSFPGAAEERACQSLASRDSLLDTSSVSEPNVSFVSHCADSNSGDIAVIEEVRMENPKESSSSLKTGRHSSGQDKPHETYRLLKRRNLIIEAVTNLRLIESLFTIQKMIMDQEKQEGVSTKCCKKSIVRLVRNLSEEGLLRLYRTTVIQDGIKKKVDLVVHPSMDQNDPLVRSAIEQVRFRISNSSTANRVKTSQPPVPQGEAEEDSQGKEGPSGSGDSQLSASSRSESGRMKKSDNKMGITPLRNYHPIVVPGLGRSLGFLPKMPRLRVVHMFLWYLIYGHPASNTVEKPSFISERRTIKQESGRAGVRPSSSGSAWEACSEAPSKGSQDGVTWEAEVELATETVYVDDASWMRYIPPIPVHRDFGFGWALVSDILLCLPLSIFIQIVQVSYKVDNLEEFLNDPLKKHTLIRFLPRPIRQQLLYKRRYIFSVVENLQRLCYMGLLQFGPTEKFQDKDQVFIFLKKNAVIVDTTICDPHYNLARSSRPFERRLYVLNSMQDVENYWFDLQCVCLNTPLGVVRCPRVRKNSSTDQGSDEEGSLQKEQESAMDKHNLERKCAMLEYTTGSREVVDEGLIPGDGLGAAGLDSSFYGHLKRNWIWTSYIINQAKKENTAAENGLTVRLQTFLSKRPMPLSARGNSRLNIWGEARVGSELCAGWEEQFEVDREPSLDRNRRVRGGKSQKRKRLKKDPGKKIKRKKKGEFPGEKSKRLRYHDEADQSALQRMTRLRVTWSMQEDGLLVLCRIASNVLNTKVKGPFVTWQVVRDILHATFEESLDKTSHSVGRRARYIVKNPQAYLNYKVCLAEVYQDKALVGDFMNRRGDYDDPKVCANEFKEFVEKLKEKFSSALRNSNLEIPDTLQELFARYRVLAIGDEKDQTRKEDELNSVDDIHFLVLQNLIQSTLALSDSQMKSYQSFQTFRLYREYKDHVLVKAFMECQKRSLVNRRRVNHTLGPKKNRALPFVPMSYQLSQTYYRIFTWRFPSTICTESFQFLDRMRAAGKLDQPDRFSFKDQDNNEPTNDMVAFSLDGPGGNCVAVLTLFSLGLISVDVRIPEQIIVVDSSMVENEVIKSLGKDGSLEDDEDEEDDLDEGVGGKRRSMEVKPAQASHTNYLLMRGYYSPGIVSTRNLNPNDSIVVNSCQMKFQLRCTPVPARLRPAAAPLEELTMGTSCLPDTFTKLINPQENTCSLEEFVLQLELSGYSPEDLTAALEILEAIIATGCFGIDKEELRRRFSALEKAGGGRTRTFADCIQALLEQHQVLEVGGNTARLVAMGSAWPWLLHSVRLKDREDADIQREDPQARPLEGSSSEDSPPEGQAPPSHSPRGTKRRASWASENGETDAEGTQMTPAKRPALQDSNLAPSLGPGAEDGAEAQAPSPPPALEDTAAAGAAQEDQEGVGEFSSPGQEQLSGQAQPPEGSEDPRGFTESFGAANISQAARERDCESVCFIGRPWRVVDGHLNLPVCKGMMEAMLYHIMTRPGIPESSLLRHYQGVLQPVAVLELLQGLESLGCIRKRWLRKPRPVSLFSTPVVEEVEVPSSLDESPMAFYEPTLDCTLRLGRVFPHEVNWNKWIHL
UniProt Q86XA9: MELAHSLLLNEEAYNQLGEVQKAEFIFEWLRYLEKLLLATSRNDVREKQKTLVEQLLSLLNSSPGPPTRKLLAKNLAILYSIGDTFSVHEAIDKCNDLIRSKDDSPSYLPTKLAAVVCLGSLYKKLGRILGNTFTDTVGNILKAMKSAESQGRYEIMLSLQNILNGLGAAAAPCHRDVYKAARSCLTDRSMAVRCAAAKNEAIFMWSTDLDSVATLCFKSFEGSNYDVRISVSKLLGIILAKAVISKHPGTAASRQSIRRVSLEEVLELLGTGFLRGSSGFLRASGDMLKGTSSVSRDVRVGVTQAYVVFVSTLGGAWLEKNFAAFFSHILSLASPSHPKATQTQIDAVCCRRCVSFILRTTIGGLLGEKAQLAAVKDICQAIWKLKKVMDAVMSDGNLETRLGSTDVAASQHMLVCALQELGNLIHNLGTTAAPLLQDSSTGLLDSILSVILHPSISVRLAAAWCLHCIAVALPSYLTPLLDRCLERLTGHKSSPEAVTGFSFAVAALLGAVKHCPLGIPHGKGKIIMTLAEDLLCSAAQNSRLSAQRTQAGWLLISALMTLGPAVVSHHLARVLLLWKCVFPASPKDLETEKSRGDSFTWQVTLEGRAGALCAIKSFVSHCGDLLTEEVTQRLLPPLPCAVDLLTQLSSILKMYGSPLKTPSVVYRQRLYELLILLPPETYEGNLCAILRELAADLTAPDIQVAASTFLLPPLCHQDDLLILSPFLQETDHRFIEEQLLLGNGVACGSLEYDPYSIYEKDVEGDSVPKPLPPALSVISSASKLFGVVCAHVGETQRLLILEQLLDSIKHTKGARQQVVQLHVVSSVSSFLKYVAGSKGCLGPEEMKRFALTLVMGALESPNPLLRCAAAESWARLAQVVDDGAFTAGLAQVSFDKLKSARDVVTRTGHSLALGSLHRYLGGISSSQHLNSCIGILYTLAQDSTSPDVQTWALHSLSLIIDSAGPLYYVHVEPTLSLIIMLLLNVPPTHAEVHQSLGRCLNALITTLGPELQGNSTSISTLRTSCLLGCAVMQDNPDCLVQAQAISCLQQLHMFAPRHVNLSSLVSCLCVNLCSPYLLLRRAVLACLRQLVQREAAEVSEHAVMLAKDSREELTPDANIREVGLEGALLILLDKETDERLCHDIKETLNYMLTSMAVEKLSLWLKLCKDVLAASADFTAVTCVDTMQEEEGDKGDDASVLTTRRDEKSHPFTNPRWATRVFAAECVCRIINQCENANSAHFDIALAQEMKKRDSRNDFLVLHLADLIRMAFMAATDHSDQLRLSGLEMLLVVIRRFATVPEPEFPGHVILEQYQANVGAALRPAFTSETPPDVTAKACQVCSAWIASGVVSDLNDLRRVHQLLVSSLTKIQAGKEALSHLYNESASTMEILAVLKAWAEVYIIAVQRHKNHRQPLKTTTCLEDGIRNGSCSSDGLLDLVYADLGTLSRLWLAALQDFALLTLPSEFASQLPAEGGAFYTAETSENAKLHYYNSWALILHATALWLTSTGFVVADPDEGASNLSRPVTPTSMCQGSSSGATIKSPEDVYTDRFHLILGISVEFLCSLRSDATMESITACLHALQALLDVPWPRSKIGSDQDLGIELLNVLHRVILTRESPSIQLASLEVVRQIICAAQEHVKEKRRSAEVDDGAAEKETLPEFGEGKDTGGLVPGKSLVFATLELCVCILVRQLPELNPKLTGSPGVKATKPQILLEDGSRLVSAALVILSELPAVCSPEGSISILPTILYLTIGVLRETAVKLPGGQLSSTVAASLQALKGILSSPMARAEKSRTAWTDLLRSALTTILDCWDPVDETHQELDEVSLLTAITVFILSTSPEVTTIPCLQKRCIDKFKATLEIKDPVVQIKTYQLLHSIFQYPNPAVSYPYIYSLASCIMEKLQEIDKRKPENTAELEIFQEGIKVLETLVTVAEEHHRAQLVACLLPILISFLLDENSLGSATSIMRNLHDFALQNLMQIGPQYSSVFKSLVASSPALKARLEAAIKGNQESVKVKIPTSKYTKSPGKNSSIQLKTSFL
UniProt P28161: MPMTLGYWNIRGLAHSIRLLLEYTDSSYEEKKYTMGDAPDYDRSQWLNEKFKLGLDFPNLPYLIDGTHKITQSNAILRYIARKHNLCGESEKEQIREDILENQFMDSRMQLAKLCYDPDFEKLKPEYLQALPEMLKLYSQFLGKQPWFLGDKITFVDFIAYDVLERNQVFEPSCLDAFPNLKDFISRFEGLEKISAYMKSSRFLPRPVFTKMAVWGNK
UniProt P15170, whole entry, looked up: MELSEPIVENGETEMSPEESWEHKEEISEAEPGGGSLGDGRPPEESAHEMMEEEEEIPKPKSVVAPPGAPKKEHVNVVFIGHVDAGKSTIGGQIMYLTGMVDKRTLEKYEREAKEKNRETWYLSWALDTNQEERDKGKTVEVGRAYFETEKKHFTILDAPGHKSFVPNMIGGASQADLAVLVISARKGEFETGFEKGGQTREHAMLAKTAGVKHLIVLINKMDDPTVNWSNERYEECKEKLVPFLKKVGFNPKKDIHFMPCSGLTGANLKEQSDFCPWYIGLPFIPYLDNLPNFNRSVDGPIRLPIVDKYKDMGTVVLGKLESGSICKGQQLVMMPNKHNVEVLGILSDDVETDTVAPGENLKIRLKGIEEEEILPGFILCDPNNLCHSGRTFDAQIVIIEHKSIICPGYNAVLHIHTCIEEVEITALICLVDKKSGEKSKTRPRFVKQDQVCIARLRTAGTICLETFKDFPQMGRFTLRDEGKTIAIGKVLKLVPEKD

Key:
Assay in all cases: log2 fold change, soluble protein after heating vs DMSO (PISA); higher = thermal stabilisation; K562 cells, 10 uM, 30 min; active = over 0.2 and 3.5 SD of the protein, either way, in both replicates (recomputed)
[1] = compound: CS(=O)(=O)c1ccc(-c2cnc(N)c(C(=O)Nc3ccccc3)n2)cc1
In short: (§1)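 K562 cells (2×10^6 cells/mL) were treated with 10 μM compound for 30 min, and aliquots were heated for 3 min over 48°C-58°C. Pooled aliquots were extracted in PBS with 0.5% NP-40 at 4°C, and the supernatant after 21,000xg for 90 min was measured by TMTpro 16plex LC-MS/MS with channel sums equalised. Reported thermal stability, relative to control samples and from duplicates, is a log2 fold change.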

[2] = compound: C[C@@H](Oc1cc(-c2cnn(C3CCNCC3)c2)cnc1N)c1c(Cl)ccc(F)c1Cl [crizotinib]
In short: as §1

[3] = compound: C[C@@H]1COCCN1C2=NC(=NC(=C2)C3(CC3)S(=O)(=O)C)C4=C5C=CNC5=CC=C4
In short: as §1

[4] = compound: C[C@H](C1=CC=C(C=C1)C(=O)NC2=C3C=CNC3=NC=C2)N
In short: as §1

[5] = compound: C[C@H](Nc1ncnc2nc[nH]c12)c1cc2cccc(Cl)c2c(=O)n1-c1ccccc1 [duvelisib]
In short: as §1

[6] = compound: Cc1cc(Nc2cc(CN3CCOCC3)c3nc(C)c(Cc4ccc(Cl)cc4F)n3n2)n[nH]1 [gandotinib]
In short: as §1

[7] = compound: Cc1cc(Nc2cc(N3CCN(C)CC3)nc(Sc3ccc(NC(=O)C4CC4)cc3)n2)n[nH]1 [tozasertib]
In short: as §1

[8] = compound: Cc1cc(SCc2sc(-c3ccc(C(F)(F)F)cc3)nc2C)ccc1OCC(=O)O
In short: as §1

[9] = compound: Cc1ccc(-n2nc(C(C)(C)C)cc2NC(=O)Nc2ccc(OCCN3CCOCC3)c3ccccc23)cc1 [doramapimod]
In short: as §1

[10] = compound: Cc1ccc(C(=O)N(CCCN)[C@@H](c2nc3cc(Cl)ccc3c(=O)n2Cc2ccccc2)C(C)C)cc1 [ispinesib]
In short: as §1

[11] = compound: Cc1ccc(NC(=O)c2ccc(CN3CC[C@H](N(C)C)C3)c(C(F)(F)F)c2)cc1Nc1nccc(-c2cncnc2)n1 [bafetinib]
In short: as §1

[12] = compound: Cc1cccc(CC(=O)N2CCc3c2ccc(-c2cn(C)c4ncnc(N)c24)c3F)n1
In short: as §1

[13] = compound: Cc1cn(-c2cc(NC(=O)c3ccc(C)c(Nc4nccc(-c5cccnc5)n4)c3)cc(C(F)(F)F)c2)cn1 [nilotinib]
In short: as §1

[14] = compound: Cc1nc(Nc2n[nH]c3c2CN(C(=O)N[C@H](CN(C)C)c2ccccc2)C3(C)C)c2sccc2n1
In short: as §1

[15] = compound: Cc1nc(Nc2ncc(C(=O)Nc3c(C)cccc3Cl)s2)cc(N2CCN(CCO)CC2)n1 [dasatinib]
In short: as §1

[16] = compound: Cc1ncc(-c2ccnc(Nc3ccc(S(C)(=O)=O)cc3)n2)n1C(C)C
In short: as §1

[17] = compound: Cn1cc(-c2ccc3c(c2)CCN3C(=O)Cc2cccc(C(F)(F)F)c2)c2c(N)ncnc21
In short: as §1

[18] = compound: Cn1cc(-c2ccc3nnc(C(F)(F)c4ccc5ncccc5c4)n3n2)cn1
In short: as §1

[19] = compound: Cn1cncc1[C@@](N)(c1ccc(Cl)cc1)c1ccc2c(c1)c(-c1cccc(Cl)c1)cc(=O)n2C [tipifarnib]
In short: as §1

[20] = compound: FC(F)(F)c1ccc(/C=C/c2nc(COc3ccc(CCCCn4ccnn4)cc3)co2)cc1 [mubritinib]
In short: as §1

Measured: log2 fold change

GYPA (UniProt P02724)
inactive: [1] -0.081 | [2] -0.032 | [3] -0.078 | [4] -0.193 | [5] 0.038 | [6] -0.058 | [7] -0.083 | [8] -0.062 | [9] -0.015 | [10] -0.12 | [11] 0.012 | [12] 0.017 | [13] 0.384 | [14] 0.018 | [15] 0.213 | [16] 0.069 | [17] 0.118 | [18] -0.164 | [19] -0.084 | [20] 0.05

HBG1 (UniProt P69891)
inactive: [1] 0.002 | [2] 0.157 | [3] 0.232 | [4] -0.076 | [5] 0.101 | [6] 0.068 | [7] 0.032 | [8] 0.01 | [9] -0.028 | [10] 0.168 | [11] -0.027 | [12] 0.056 | [13] 0.005 | [14] 0.022 | [15] 0.046 | [16] 0 | [17] 0.141 | [18] 0.162 | [19] -0.159 | [20] 0.036

GSTO1 (UniProt P78417)
inactive: [1] 0.047 | [2] 0 | [3] 0.013 | [4] -0.072 | [6] -0.017 | [8] 0 | [9] -0.02 | [10] 0.036 | [11] 0.021 | [12] 0.148 | [13] -0.009 | [14] -0.021 | [15] -0.007 | [16] -0.009 | [17] 0.019 | [18] -0.004 | [19] -0.014 | [20] 0.018

GTF2F1 (UniProt P35269)
inactive: [1] 0.04 | [2] -0.008 | [3] -0.003 | [4] 0.003 | [5] 0.021 | [6] 0.071 | [7] -0.044 | [8] -0.037 | [9] -0.017 | [10] 0.076 | [11] 0.007 | [12] -0.014 | [13] -0.014 | [14] -0.018 | [15] -0.002 | [16] -0.052 | [17] -0.015 | [18] -0.025 | [19] 0.01 | [20] 0.042

GTF3C6 (UniProt Q969F1)
inactive: [1] -0.044 | [2] 0.079 | [3] -0.135 | [4] 0.079 | [5] -0.031 | [6] -0.183 | [7] 0.037 | [8] 0.026 | [9] 0.174 | [11] -0.036 | [12] 0.009 | [13] 0.045 | [14] -0.43 | [15] -0.033 | [16] 0.028 | [17] -0.293 | [19] 0.082 | [20] 0.191

HEXB (UniProt P07686)
inactive: [1] -0.009 | [3] 0.058 | [4] -0.021 | [6] -0.013 | [8] -0.031 | [9] -0.007 | [10] -0.128 | [12] -0.04 | [13] 0.002 | [14] 0.032 | [15] 0.039 | [16] -0.024 | [17] 0.021 | [18] 0.01 | [19] 0.026 | [20] 0.008
active: [2] -0.377 | [11] -0.468

GSPT2 (UniProt Q8IYD1)
inactive: [1] 0.06 | [2] 0.006 | [3] 0.046 | [4] 0.09 | [5] 0.017 | [6] 0.306 | [8] -0.048 | [9] -0.078 | [10] 0.012 | [11] -0.102 | [12] 0.092 | [13] -0.102 | [14] 0.019 | [15] -0.182 | [16] 0.056 | [17] -0.003 | [18] -0.005 | [19] -0.047 | [20] -0.041

HDAC1 (UniProt Q13547)
inactive: [1] 0.011 | [2] 0.084 | [3] 0.001 | [4] 0.115 | [6] -0.02 | [8] 0.06 | [9] -0.018 | [10] 0.038 | [11] 0.306 | [12] -0.046 | [13] -0.023 | [14] -0.021 | [15] -0.091 | [16] -0.055 | [17] -0.002 | [18] -0.009 | [19] -0.078 | [20] -0.025

HERC1 (UniProt Q15751)
inactive: [1] 0.018 | [2] -0.064 | [3] -0.009 | [4] 0.022 | [5] -0.015 | [6] 0.033 | [7] 0.042 | [8] 0.049 | [9] 0.008 | [10] 0.059 | [11] -0.023 | [12] 0.023 | [13] -0.033 | [14] -0.034 | [15] -0.02 | [16] -0.004 | [17] -0.053 | [18] -0.045 | [19] -0.007 | [20] 0.034

GTF2I (UniProt P78347)
inactive: [1] -0.038 | [2] -0.009 | [3] -0.081 | [4] 0.28 | [5] 0.066 | [6] 0.04 | [7] 0.203 | [8] 0.005 | [9] 0.18 | [10] -0.393 | [11] 0.006 | [12] -0.021 | [13] 0.062 | [14] -0.148 | [15] -0.013 | [16] -0.139 | [17] -0.116 | [18] -0.062 | [19] 0.098 | [20] 0.009

GTF3C1 (UniProt Q12789)
inactive: [1] -0.159 | [2] -0.234 | [3] 0.04 | [4] 0.303 | [5] 0.17 | [6] 0.1 | [7] 0.018 | [8] 0.01 | [9] 0.173 | [10] -0.352 | [11] 0.068 | [12] 0.24 | [13] -0.357 | [14] 0.117 | [15] 0.017 | [16] -0.213 | [17] -0.256 | [18] 0.102 | [19] 0.025 | [20] 0.079

HBE1 (UniProt P02100)
inactive: [1] -0.033 | [2] 0.142 | [3] 0.265 | [4] -0.085 | [5] 0.116 | [6] 0.037 | [7] 0.006 | [8] 0.024 | [9] -0.007 | [10] 0.131 | [11] -0.046 | [12] -0.007 | [13] 0.001 | [14] 0.026 | [15] 0.057 | [16] -0.004 | [17] 0.123 | [18] 0.144 | [19] -0.083 | [20] 0.015

Reprinted from above (two entries):
HERC1 (UniProt Q15751)
inactive: [1] 0.018 | [2] -0.064 | [3] -0.009 | [4] 0.022 | [5] -0.015 | [6] 0.033 | [7] 0.042 | [8] 0.049 | [9] 0.008 | [10] 0.059 | [11] -0.023 | [12] 0.023 | [13] -0.033 | [14] -0.034 | [15] -0.02 | [16] -0.004 | [17] -0.053 | [18] -0.045 | [19] -0.007 | [20] 0.034

GTF2I (UniProt P78347)
inactive: [1] -0.038 | [2] -0.009 | [3] -0.081 | [4] 0.28 | [5] 0.066 | [6] 0.04 | [7] 0.203 | [8] 0.005 | [9] 0.18 | [10] -0.393 | [11] 0.006 | [12] -0.021 | [13] 0.062 | [14] -0.148 | [15] -0.013 | [16] -0.139 | [17] -0.116 | [18] -0.062 | [19] 0.098 | [20] 0.009

Additional results.

HEATR5A (UniProt Q86XA9)
inactive: [1] -0.122 | [2] -0.238 | [3] 0.049 | [4] 0.146 | [5] -0.103 | [6] -0.067 | [7] 0.265 | [8] 0.059 | [9] 0.073 | [10] -0.129 | [11] -0.051 | [12] 0.036 | [13] -0.19 | [14] -0.067 | [15] -0.104 | [16] 0.042 | [17] 0.027 | [18] -0.004 | [19] 0.005 | [20] 0.109

GSTM2 (UniProt P28161)
inactive: [1] 0.087 | [2] -0.075 | [3] 0.013 | [4] -0.086 | [6] 0.125 | [7] -0.139 | [9] -0.076 | [10] -0.011 | [11] -0.063 | [12] -0.124 | [13] 0.001 | [14] 0.025 | [16] -0.036 | [17] 0.062 | [18] 0.111 | [19] 0.088 | [20] -0.028

HEBP1 (UniProt Q9NRV9)
inactive: [1] -0.072 | [2] 0.303 | [3] 0.085 | [4] -0.043 | [5] 0.109 | [6] 0.431 | [7] 0.118 | [8] -0.011 | [9] 0.224 | [10] -0.175 | [11] 0.081 | [12] -0.128 | [13] 0.454 | [14] 0.195 | [15] 0.303 | [16] -0.038 | [17] 0.113 | [18] -0.038 | [19] -0.051 | [20] 0.028

GSPT1 isoform 3 (UniProt P15170)
inactive: [1] 0.082 | [2] -0.008 | [3] 0.083 | [4] -0.049 | [5] 0.046 | [6] -0.074 | [7] -0.01 | [8] -0.005 | [9] 0.014 | [10] 0.074 | [11] -0.003 | [12] 0.014 | [13] 0.057 | [14] 0.022 | [15] -0.006 | [16] 0.017 | [17] 0.032 | [18] 0.036 | [19] -0.055 | [20] 0.02

H1FX (UniProt Q92522)
inactive: [1] -0.175 | [2] 0.091 | [3] -0.524 | [4] 0.432 | [6] 0.13 | [8] 0.021 | [9] 0.188 | [10] -0.016 | [11] 0.248 | [12] 0.048 | [13] 0.035 | [14] 0.079 | [15] 0.043 | [16] 0.039 | [17] -0.189 | [18] -0.113 | [19] 0.126 | [20] -0.138
